The list does not hold the whole screen: it gathers tests that were run many times, whatever their T/C, doses with no T/C, and many T/C values between a quarter and a half above the control. Further doses and runs are listed elsewhere. T/C: endpoint of the treated group in % of that of the vehicle group. Some doses have a count of surviving animals in place of a T/C: the source files T/C as zero there, which appears to mark a toxic dose or a test without result, not a measured value. Some doses without a T/C left all or most animals alive at the check, yet need not have been tolerated: survival well below the control is almost never listed, so the zero probably covers shortened survival too. Survivors were counted at the toxicity check, usually on the fifth day, unless a day is given; later deaths do not show. Schedule codes are those of the source, taken here to give the interval after Q, in days (D) or hours (H), and the number of doses after X. Some entries hold several experiments; the values are given in rising order. Some schedule codes hold Z or #, which are not explained here. Where survival is the endpoint, the PubChem record calls one and a half times the control and up active, and a quarter to a half above the control has no call in these data; cut-offs in other NCI protocols can differ. Some T/C values are followed by the survivors on the day toxicity was checked, most often the fifth; where none is given, no animal had died by that day.
Tested on: L1210 leukemia ip in BDF1 mice, survival T/C
Assay: NCI In Vivo Anticancer Drug Screen. Data for tumor model L1210 Leukemia (intraperitoneal) in B6D2F1 (BDF1) mice
Conditions: higher T/C = longer survival
[1] = T/C endpoint: mean survival time, dose: 300.0 mg/kg/injection, schedule: Q01DX001 (ip), vehicle: saline
[2] = T/C endpoint: mean survival time, dose: 200.0 mg/kg/injection, schedule: Q04DX003 (ip), vehicle: saline
[3] = T/C endpoint: mean survival time, dose: 400.0 mg/kg/injection, schedule: Q04DX003 (ip), vehicle: saline
[4] = T/C endpoint: mean survival time, dose: 400.0 mg/kg/injection, schedule: Q04DX002 (ip), vehicle: saline with Tween-80
[5] = T/C endpoint: mean survival time, dose: 100.0 mg/kg/injection, schedule: Q04DX003 (ip), vehicle: saline with Tween-80
[6] = T/C endpoint: mean survival time, dose: 200.0 mg/kg/injection, schedule: Q01DX001 (ip), vehicle: carboxymethylcellulose (CMC)
[7] = T/C endpoint: mean survival time, dose: 400.0 mg/kg/injection, schedule: Q01DX001 (ip), vehicle: carboxymethylcellulose (CMC)
[8] = T/C endpoint: mean survival time, dose: 400.0 mg/kg/injection, schedule: Q04DX003 (ip), vehicle: Klucel (hydroxypropylcellulose) (HPC)
[9] = T/C endpoint: mean survival time, dose: 200.0 mg/kg/injection, schedule: Q01DX001 (ip), vehicle: saline
[10] = T/C endpoint: mean survival time, dose: 400.0 mg/kg/injection, schedule: Q01DX001 (ip), vehicle: saline
[11] = T/C endpoint: mean survival time, dose: 200.0 mg/kg/injection, schedule: Q01DX009 (ip), vehicle: water
[12] = T/C endpoint: mean survival time, dose: 400.0 mg/kg/injection, schedule: Q01DX009 (ip), vehicle: water
[13] = T/C endpoint: mean survival time, dose: 400.0 mg/kg/injection, schedule: Q01DX009 (ip), vehicle: saline
[14] = T/C endpoint: mean survival time, dose: 200.0 mg/kg/injection, schedule: Q01DX009 (ip), vehicle: Klucel (hydroxypropylcellulose) (HPC)
[15] = T/C endpoint: mean survival time, dose: 200.0 mg/kg/injection, schedule: Q01DX009 (ip), vehicle: saline
[16] = T/C endpoint: mean survival time, dose: 400.0 mg/kg/injection, schedule: Q04DX003 (ip), vehicle: saline with Tween-80

Compound: CC(=O)NCCOc1ccc([N+](=O)[O-])cc1Cl
- survivor count (T/C endpoint: mean survival time, dose: 400.0 mg/kg/injection, schedule: Q01DX001 (ip), vehicle: Klucel (hydroxypropylcellulose) (HPC)): 1 of 3

Compound: O=[N+]([O-])c1c[n+]([O-])ccc1Cl
- survivor count (T/C endpoint: mean survival time, dose: 75.0 mg/kg/injection, schedule: Q01DX001 (ip), vehicle: saline): 0 of 6
- survivor count (T/C endpoint: mean survival time, dose: 150.0 mg/kg/injection, schedule: Q01DX001 (ip), vehicle: saline): 0 of 6
- survivor count [1]: 0 of 6

Compound: CC(CCC(=O)O)(NC(=O)c1ccc(NCc2ccc3nc(N)nc(N)c3c2)cc1)C(=O)O (centres undefined)
- T/C (T/C endpoint: mean survival time, dose: 2.0 mg/kg/injection, schedule: Q04DX003 (ip), vehicle: saline): 126 % of control [5 of 6 alive]
- survivor count (T/C endpoint: mean survival time, dose: 4.0 mg/kg/injection, schedule: Q01DX009 (ip), vehicle: saline): 5 of 6
- T/C (T/C endpoint: mean survival time, dose: 4.0 mg/kg/injection, schedule: Q04DX003 (ip), vehicle: saline): 125 % of control
- survivor count (T/C endpoint: mean survival time, dose: 8.0 mg/kg/injection, schedule: Q01DX009 (ip), vehicle: saline): 3 of 6
- T/C (T/C endpoint: mean survival time, dose: 32.0 mg/kg/injection, schedule: Q04DX003 (ip), vehicle: saline): 125 % of control

Compound: [Cl][Co][Cl].[NH-]CCN1CC1
- survivor count [2]: 0 of 6
- survivor count [3]: 0 of 6

Compound: O=C(O)c1cccc(S)c1
- survivor count [4]: 1 of 3

Compound: COC(=O)N1C2C=CC(C2)N1C(=O)OC
- survivor count (T/C endpoint: mean survival time, dose: 200.0 mg/kg/injection, schedule: Q01DX009 (ip), vehicle: DMSO): 1 of 6
- survivor count (T/C endpoint: mean survival time, dose: 400.0 mg/kg/injection, schedule: Q04DX003 (ip), vehicle: DMSO): 0 of 6

Compound: CN(C)CCCn1nc(-c2ccccc2)oc1=O
- survivor count [1]: 1 of 6

Compound: O=[N+]([O-])n1cnnc1-c1ccccc1
- survivor count (T/C endpoint: mean survival time, dose: 100.0 mg/kg/injection, schedule: Q04DX003 (ip), vehicle: gum acacia): 5 of 6
- survivor count (T/C endpoint: mean survival time, dose: 200.0 mg/kg/injection, schedule: Q04DX003 (ip), vehicle: gum acacia): 0 of 6
- survivor count (T/C endpoint: mean survival time, dose: 400.0 mg/kg/injection, schedule: Q04DX003 (ip), vehicle: gum acacia): 0 of 6

Compound: Cc1c(C=NCCNCCN=Cc2[nH]c(=S)[nH]c(=O)c2C)[nH]c(=S)[nH]c1=O
- T/C [5]: 125 % of control

Compound: CN(C)CCOc1ccccc1Cc1ccccc1
- survivor count [3]: 0 of 4

Compound: Nc1c([N+](=O)[O-])cc([N+](=O)[O-])c2ccccc12
- survivor count [6]: 0 of 6
- survivor count [7]: 0 of 6

Compound: C[N+]1(CCO)CC[N+](C)(CCCN2c3ccccc3Sc3ccc(Cl)cc32)CC1 (centres undefined)
- survivor count (T/C endpoint: mean survival time, dose: 80.0 mg/kg/injection, schedule: Q01DX001 (ip), vehicle: carboxymethylcellulose (CMC)): 0 of 4
- survivor count (T/C endpoint: mean survival time, dose: 100.0 mg/kg/injection, schedule: Q01DX001 (ip), vehicle: carboxymethylcellulose (CMC)): 0 of 4
- survivor count [6]: 0 of 4
- survivor count [7]: 0 of 4

Compound: c1ccc2c(c1)C1=NCCN1c1ccccc1-2
- survivor count (T/C endpoint: mean survival time, dose: 100.0 mg/kg/injection, schedule: Q04DX003 (ip), vehicle: Klucel (hydroxypropylcellulose) (HPC)): 0 of 6
- survivor count (T/C endpoint: mean survival time, dose: 200.0 mg/kg/injection, schedule: Q04DX003 (ip), vehicle: Klucel (hydroxypropylcellulose) (HPC)): 0 of 6
- survivor count [8]: 0 of 6

Compound: O=C(C[n+]1ccccc1)c1cn(Cc2ccccc2)c2ccccc12
- survivor count (T/C endpoint: mean survival time, dose: 300.0 mg/kg/injection, schedule: Q01DX001 (ip), vehicle: other): 0 of 6

Compound: O=C(O)CCCNCc1cc(=O)[nH]c(=O)[nH]1
- survivor count [2]: 1 of 4
- survivor count [3]: 0 of 4

Compound: CCCCCCCCCCCCC(C)C(=O)O (centres undefined)
- survivor count (T/C endpoint: mean survival time, dose: 100.0 mg/kg/injection, schedule: Q04DX002 (ip), vehicle: Klucel (hydroxypropylcellulose) (HPC)): 3 of 3

Compound: O=C(O)C(O)C(Br)C(=O)O (centres undefined)
- survivor count (T/C endpoint: mean survival time, dose: 25.0 mg/kg/injection, schedule: Q04DX003 (ip), vehicle: saline): 2 of 6
- survivor count [9]: 0 of 6
- survivor count [10]: 0 of 6

Compound: NC(N)=Nc1ccc(OC(=O)c2ccc(N=C(N)N)cc2)cc1
- survivor count (T/C endpoint: mean survival time, dose: 100.0 mg/kg/injection, schedule: Q01DX009 (ip), vehicle: water): 3 of 6
- survivor count [11]: 0 of 6
- survivor count [12]: 0 of 6

Compound: CCOC1OCN(C(C)(C)C)CC1(C)C (centres undefined)
- survivor count [13]: 1 of 6

Compound: O=C1N(Cl)C(=O)C(c2ccccc2)(c2ccc(F)cc2)N1Cl (centres undefined)
- survivor count [14]: 0 of 6
- survivor count [8]: 2 of 6

Compound: CCCCOP(=O)(/C=C/c1ccccc1)OCCCC
- survivor count [4]: 0 of 3

Compound: Cc1c([N+](=O)[O-])cc(C(C)(C)C)c(OC(=S)N(C)C)c1[N+](=O)[O-]
- survivor count (T/C endpoint: mean survival time, dose: 50.0 mg/kg/injection, schedule: Q04DX002 (ip), vehicle: saline with Tween-80): 3 of 3

Compound: CCNC(C)(C)C(SSSC(c1ccc(Br)cc1)C(C)(C)NCC)c1ccc(Br)cc1 (centres undefined)
- survivor count [11]: 2 of 6
- survivor count [12]: 0 of 6

Compound: CN1CCN(C(=O)Nc2cccc(Cl)c2Cl)CC1
- survivor count [15]: 5 of 6
- survivor count [13]: 1 of 6

Compound: Brc1cccc2c1C[n+]1ccccc1-2
- survivor count [1]: 2 of 6

Compound: CCN(CC)CCCC(C)Nc1ccnc2ccc(-c3ccccc3)cc12 (centres undefined)
- survivor count (T/C endpoint: mean survival time, dose: 100.0 mg/kg/injection, schedule: Q01DX001 (ip), vehicle: saline): 1 of 4
- survivor count [9]: 0 of 4
- survivor count [10]: 0 of 4

Compound: Cc1c[n+]([O-])cc(C)c1N=Nc1ccc(N(C)C)cc1
- survivor count [16]: 4 of 6

Compound: CCCCCCCCCCCC(=O)NC(=S)Nc1cccc(Cl)c1
- survivor count (T/C endpoint: mean survival time, dose: 400.0 mg/kg/injection, schedule: Q01DX009 (ip), vehicle: saline with Tween-80): 4 of 6 and 3 of 3

Compound: NC(=O)Nc1n[nH]c(-c2ccccc2)n1
- survivor count [15]: 6 of 6
- survivor count [13]: 6 of 6

Compound: O=S(=O)(F)c1cc(Cl)c(O)c(S(=O)(=O)F)c1
- survivor count [14]: 0 of 6
- survivor count (T/C endpoint: mean survival time, dose: 400.0 mg/kg/injection, schedule: Q01DX009 (ip), vehicle: Klucel (hydroxypropylcellulose) (HPC)): 0 of 6

Compound: O=C(Nc1ccccc1)c1ccc(C(F)(F)F)cc1O
- survivor count [4]: 0 of 3

Compound: CCOC(=O)c1cnc2c(ccc3ncccc32)c1NCCCN(CC)CC
- survivor count (T/C endpoint: mean survival time, dose: 100.0 mg/kg/injection, schedule: Q01DX009 (ip), vehicle: Klucel (hydroxypropylcellulose) (HPC)): 1 of 3
- survivor count [14]: 0 of 3

Compound: CC(=O)C(Sc1ccccc1[N+](=O)[O-])C(C)=O.[Cr]
- survivor count (T/C endpoint: mean survival time, dose: 200.0 mg/kg/injection, schedule: Q01DX001 (ip), vehicle: other): 4 of 4

Compound: ClC(c1ccccc1)c1nc2ccccc2[nH]1 (centres undefined)
- survivor count [10]: 2 of 4

Compound: CCCCn1c(C)nc2c(NN=C(N)N)c3ccccc3c(N=NC(=N)N)c21
- survivor count (T/C endpoint: mean survival time, dose: 30.0 mg/kg/injection, schedule: Q01DX Z (ip), vehicle: carboxymethylcellulose (CMC)): 1 of 6
- survivor count (T/C endpoint: mean survival time, dose: 60.0 mg/kg/injection, schedule: Q01DX Z (ip), vehicle: carboxymethylcellulose (CMC)): 0 of 6
- survivor count (T/C endpoint: mean survival time, dose: 120.0 mg/kg/injection, schedule: Q01DX Z (ip), vehicle: carboxymethylcellulose (CMC)): 0 of 6

Compound: COC(=O)/C=C\C(=O)O
- survivor count [3]: 2 of 6

Compound: CC1(C)N=C(N)N=C(N)N1c1ccc(CNC(=O)Nc2ccc(S(=O)(=O)F)cc2)c(Cl)c1
- T/C (T/C endpoint: mean survival time, dose: 100.0 mg/kg/injection, schedule: Q01DX009 (ip), vehicle: saline): 130 % of control
- T/C (T/C endpoint: mean survival time, dose: 150.0 mg/kg/injection, schedule: Q01DX009 (ip), vehicle: saline): 135 % of control

Compound: Nc1nc(N)c2cc(S(=O)(=O)c3ccccc3)ccc2n1
- T/C (T/C endpoint: median survival time, dose: 50.0 mg/kg/injection, schedule: Q01DX009 (ip), vehicle: saline with Tween-80): 130 % of control
- T/C (T/C endpoint: median survival time, dose: 100.0 mg/kg/injection, schedule: Q01DX009 (ip), vehicle: saline with Tween-80): 140 % of control
- T/C (T/C endpoint: median survival time, dose: 200.0 mg/kg/injection, schedule: Q01DX009 (ip), vehicle: saline with Tween-80): 139 % of control

Compound: CCCCCCCCCCCc1cc(=O)n(-c2ccccc2)n1C
- survivor count [5]: 3 of 6
- survivor count [16]: 3 of 6

From PubChem BioAssay AID248 (DTP/NCI, 2004)
